# This is a noisy data set.
# B1: human tRNA-Pro; a variant is named by its letters at N, in order (parent)
# chain: GGCTCGTTGGTCTAGNGGTATGATTCTCGCTTAGGGTGCGAGAGGTCCCGGGTTCNNATCCCGGACGAGCCC
# Variants of: B1
# Assay: tRNA 3' processing efficiency (processed reads / all reads, maximum-likelihood estimate) (fraction); higher = more efficient 3' processing
# Conditions: HEK293T; construct: no Pol-II promoter ((-)CMV library)
row,Variant,tRNA 3' processing efficiency
1,GGCTCGTTGGTCTTGCGGTATGATTCTCGCTTAGGGTGCGAGAGGTCCCGGGTTCATAGCCCGGACGAGCCC [CAT A14T T59G],0.5
2,GGCTCGTTTGTCTAAGTGTATGATTCTCGCTTAGGGTGCGAGAGGTCCCGGGTACAAATCCCGGACGAGCCC [GAA G9T G15A G17T T54A],0.62
3,GGCTCGTTGGTCTAAGGATTTGATTCTCGCTTAGGGTGCGAGAGGTCCCGGGTTCAAAGCCCGGACGAGCCC [GAA G15A G18A A20T T59G],0.57
4,GGCTCGTTGGTCTAGGGGTCTGATTCTCGCTTAGGGTGCGAGAGGTCCCGGGTTCTGAACCCGGACGAGCCC [GTG A20C T59A],0.17
5,GGCTCGTTGGTCTAGGGGCTTGATTCTCGCTTAGGGTGCGAGAGGTCCCGGGTTCAAAGCCCGGACGAGCCC [GAA T19C A20T T59G],0.5
6,GGCTCGTTGGTCTAGCGGAATGATTCTCGCTTAGGGTGCGAGAGGTCCCGAGTTCAATTCCCGGACGAGCCC [CAA T19A G51A A58T],0.27
7,GGCTCGTTTGTCTTGTGGTATGATTCTCGCTTAGGGTGCGAGAGGTCCCGGGTTCAATCCCCGGACGAGCCC [TAA G9T A14T A58T T59C],0.2
8,GGCTCGTCGGTCTGGGGGTATGATTCTCGCTTAGGGTGCGAGAGGTCCCGGGATCAAGGCCCGGACGAGCCC [GAA T8C A14G T53A A58G T59G],0.2
9,GGCTCGTTGGTCTAGGGGAATGATTCTCGCTTAGGGTGTGAGAGGTCCCGGGTTCAGATCCCGGACGAGCCC [GAG T19A C39T],0.25
10,GGCTCGTTGGTCTAGGGGTATGATTCTCGCTTGGGCTGCGAGAGGTCCCGGGTTCAAGTCCCGGACGAGCCC [GAA A33G G36C A58G],0.62
11,GGCTCGTTGGTCTGGGGGTATGATTCTCGCTTAGGGTGCGAGAGGTCCCGAGATCAAATCCCGGACGAGCCC [GAA A14G G51A T53A],0.4
12,GGCTCGTTGGTCTAGCGGTATGATTCTCGCTTAGGGTGCGAGAGGTCCCGGGTTCAAAGCCCAGACGAGCCC [CAA T59G G63A],0.5
13,GGCTCGTTGGTCTAAGAGTATGATTCTCGCTTAGGGTGCGAGAGGTCCCGGGTTCAGTTCCCGGACGAGCCC [GAG G15A G17A A58T],0.89
14,GGCTCGTTGGTCTAGGGGAATGATTCTCGCTTAGGGTGCTAGAGGTCCCGGGTTCAAATCCCGGACGAGCCC [GAA T19A G40T],0.2
15,GGCTCGTTGGTCTAGGGATTTGATTCTCGCTTAGGGTGCGAGAGGTCCCGGGTTCGGATCCCGGACGAGCCC [GGG G18A A20T],0.17
16,GGCTCGTTGGTCTAAGGGTGTGATTCTCGCTTAGGGTGCGAGAGGTCCCGGGTAGAAGTCCCTGACGAGCCC [GAA G15A A20G T54A C55G A58G G63T],0.4
17,GGCTCGTTGGTCTGGCAGTATGATTCTCGCTTAGGGTGCGAGAGGTCCCGGGTTCAATTCCCGGACGAGCCC [CAA A14G G17A A58T],0.57
18,GGCTCGTTGGTCTTGGGACATGATTCTCGCTTAGGGTGCGAGAGGTCCCGGGTTCAGATCCCGGACGAGCCC [GAG A14T G18A T19C],0.4
19,GGCTCGTTGGTCTTGCGGCATGATTCTCGCTTAGGGTGCGAGAGGTCCCGGGTTCATGTCCCGGACGAGCCC [CAT A14T T19C A58G],0.25

row,Variant,tRNA 3' processing efficiency
1,GGCTCGTCGGTCTAGAGGTATGATTCTCGCTTAGGGTGCGAGAGGTCCCGGGTTCTAAGCCCGGACGAGCCC [ATA T8C T59G],0.2
2,GGCTCGTGGGTCTTCGGGTATGATTCTCGCTTAGGGTGCGAGAGGTCCCGGGTTCAGATCCCGGACGAGCCC [GAG T8G A14T G15C],0.25
3,GGCTCGTTGGTCTAGTGGTATGATTCTCGCTTAGGGTGCGAGAGGTCCCGGGTTAAATACCCGGACGAGCCC [TAA C55A A58T T59A],0.6
4,GGCTCGTTGGTCTCTCGGCTTGATTCTCGCTTAGGGTGCGAGAGGTCCCGGGTTCAGATCCCGGACGAGCCC [CAG A14C G15T T19C A20T],0.25
5,GGCTCGTTAGTCTAGCGGTGTGATTCTCGCTTGGGGTGCGAGAGGTCCCGGGTTCGATTCCCGGACGAGCCC [CGA G9A A20G A33G A58T],0.62
6,GGCTCGTGGGTCTACTGGTATGATTCTCGCTTAGGGTGCGAGAGGTCCCGGGTTCTAATCCCGGACGAGCCC [TTA T8G G15C],0.17
7,GGCTCGTTAGTCTAGGGGTATGATTCTCGCTTAGGGTGCGAGAGGTCCCGGGTTCACTACCCGGACGAGCCC [GAC G9A A58T T59A],0.33
8,GGCTCGTTAGTCTCGGGGTATGATTCTCGCTTAGGGTGCGAGAGGTCCCGGGTTCAAACCCCGGACGAGCCC [GAA G9A A14C T59C],0.31
9,GGCTCGTTGGTCTAGGGGTATGATTCTCGCTTAGGGTGCGAGAGGTCCCGAGTTCAAAGCCCGGACGAGCCC [GAA G51A T59G],0.57
10,GGCTCGTTGGTCTAGGGGTATGATTCTCGCTTAGGGTGCGAGAGGTCCCGGGTTCAAAGTCCGGACGAGCCC [GAA T59G C60T],0.2
11,GGCTCGTTGGTCTCGAGGCATGATTCTCGCTTAGGGTGCGAGAGGTCCCGGGTTCTAATCCCGGACGAGCCC [ATA A14C T19C],0.4
12,GGCTCGTTGGTCTGGGGGTGTGATTCTCGCTTAGGGTGCGAGAGGTCCCGGGTTCTACCCCCGGACGAGCCC [GTA A14G A20G A58C T59C],0.62
13,GGCTCGTTGGTCTACCGGTCTGATTCTCGCTTAGGGTGCGAGAGGTCCCGGGTTCCAGGCCCGGACGAGCCC [CCA G15C A20C A58G T59G],0.33
14,GGCTCGTTGGTCTAGTGGTATGATTCTCGCTTAGGGTGCGAGAGGTCCCGGGTTCTCAGCCCGGACGAGCCC [TTC T59G],0.25
15,GGCTCGTTAGTCTTGGGGTTTGATTCTCGCTTAGGGTGCGAGAGGTCCCGGGGTCAAGTCCCGGACGAGCCC [GAA G9A A14T A20T T53G A58G],0.4
16,GGCTCGTTGGTCTAGTGGCCTGATTCTCGCTTAGGGTGCGAGAGGTCCCGGGTTCATATCCCGGACGAGCCC [TAT T19C A20C],0.5
17,GGCTCGTTGGTCTAGGGGAATGATTCTCGCTTAGGGTGCGAGAGGTCCCGGGTTGTAGTCCCGGACGAGCCC [GTA T19A C55G A58G],0.33
18,GGCTCGTGGGTCTAAGGGTATGATTCTCGCTTAGGGTGCGAGAGGTCCCGGGTTCTAGGCCCGGACGAGCCC [GTA T8G G15A A58G T59G],0.25
19,GGCTCGTTGGTCTAGGGATATGATTCTCGCTTAGGGTGCGAGAGGTCCCGGGGACGAATCCCGGACGAGCCC [GGA G18A T53G T54A],0.2

# Laid out differently: entries from further up.
row	Variant	tRNA 3' processing efficiency
12	GGCTCGTTGGTCTGGGGGTGTGATTCTCGCTTAGGGTGCGAGAGGTCCCGGGTTCTACCCCCGGACGAGCCC [GTA A14G A20G A58C T59C]	0.62
13	GGCTCGTTGGTCTACCGGTCTGATTCTCGCTTAGGGTGCGAGAGGTCCCGGGTTCCAGGCCCGGACGAGCCC [CCA G15C A20C A58G T59G]	0.33
14	GGCTCGTTGGTCTAGTGGTATGATTCTCGCTTAGGGTGCGAGAGGTCCCGGGTTCTCAGCCCGGACGAGCCC [TTC T59G]	0.25

# — the supplement of paper PMC6445147
